# Measured values published in PubChem BioAssay AID2284360 (EPA ToxCast).
# Inconclusive means that the source gave no clear call. Such entries were picked first, then a sample of the others. Potencies beside an inconclusive call are fits to weak or partial responses and may not hold up. Calls of active or inactive are those of the source. How the source made its calls: active means hit-call score of the fitted dose curve at least 0.9, where 1 is the maximum; inconclusive means response in the unintended direction; inactive means score below 0.9.
# Experiment: ATG_M_19_EcoTox2: Attagene TRANS-FACTORIAL EcoTox-2 HepG2 Assay for M19 Transcription Factor (Internal Marker)
# Experimental: ATG_EcoTox2 is a cell-based, multiplexed assay created by modifying the existing Attagene TRANS-FACTORIAL system to include a panel of nuclear receptors from some or all the following species: human (Homo sapiens), african clawed frog (Xenopus laevis), rainbow trout (Oncorhynchus mykiss), japanese medaka (Oryzias latipes), and zebrafish (Danio rerio). The ECOTOX2-FACTORIAL format uses HepG2, a human liver cell line, with measurements taken at 24 hours after chemical dosing in a 24-well plate. ATG_M_19_EcoTox2 is one of 29 assay components calculated in the ATG_EcoTox2 assay. It is designed to make measurements of mRNA induction, a form of inducible reporter, as detected with fluorescence intensity signals by Reverse transcription polymerase chain reaction (RT-PCR) and Capillary electrophoresis technology.The assay endpoint ATG_M_19_EcoTox2 was analyzed in the positive analysis fitting direction relative to DMSO as the negative control and baseline of activity. Using a type of inducible reporter, measures of mRNA for gain-of-signal activity can be used to understand the background control at the transcription factor-level as they relate to the gene. Furthermore, this assay endpoint can be referred to as a secondary readout, because this assay has produced multiple assay endpoints where this one serves a background control function. To generalize the intended target to other relatable targets, this assay endpoint is annotated to the background measurement intended target family, where the subfamily is internal marker.
# Human liver HepG2 cells are transiently transfected with multiple reporter transcription units (MRTUs) in 6-well plates using FuGene 6 reagent (Roche; 3 ml FuGene/1 mg DNA). The MRTU constructs are regulated by a cis-regulating element (promoter). Each RTU expresses a GAL4-UAS that regulates the transcription of a nearby target reporter gene sequence. A major difference between the CIS and TRANS system is that in CIS activities of endogenous TFs are measured, whereas the TRANS assay evaluates changes in activities of exogenous, chimeric NR-Gal4 proteins. […] At the end of 24 hour incubation, total RNA was isolated using TriZol reagent (Invitrogen). The isolated RNA is then reverse-transcribed using oligo(dT) primer and Mo-MLV reverse transcriptase (Invitrogen) with DNAse I (Ambion) treatment for 30 min. The one-tenth of the produced cDNA was amplified by PCR using Taq DNA polymerase (Invitrogen) and two reporter sequence-specific primers. The PCR products were fluorescently labeled by primer extension with 6-arboxyfluorescein (6-FAM) 5'-labeled reporter sequence-specific primer (2 min at 95 C, 20 s at 68 C and 10 min at 72 C) and these products were digested with 5U of HpaI (New England Biolabs) for 2h at 37 C. The fragments were purified using Qiaquick PCR columns (Qiagen), analyzed on an ABI 3130xL genetic analyzer (Applied Biosystems) with peak positions identified by using a set of X-rhodamine (ROX)-labeled MapMarker1000 molecular weight standards (BioVentures). The raw capillary electrophoresis data was processed using Attagraph software (Attagene).
SMILES,outcome,AC50
CC(C)(Oc1ccc(CCNC(=O)c2ccc(Cl)cc2)cc1)C(=O)O,inactive,
Cc1nc(-c2ccc(C(F)(F)F)cc2)sc1C(=O)NCc1ccc(OC(C)(C)C(=O)O)cc1,,inconclusive: 9.56 µM
CN(CCOc1ccc(CC2SC(=O)NC2=O)cc1)c1ccccn1 (centres undefined),,inconclusive: 50 µM
CC(C)OC(=O)C(C)(C)Oc1ccc(C(=O)c2ccc(Cl)cc2)cc1,,inconclusive: 50 µM
CC(c1cc2ccccc2s1)N(O)C(N)=O (centres undefined),,inconclusive: 50 µM
Cc1c(C)c2c(c(C)c1O)CCC(C)(COc1ccc(CC3SC(=O)NC3=O)cc1)O2 (centres undefined),,inconclusive: 3.3 µM
C[C@]12C=CC(=O)C=C1CC[C@@H]1[C@@H]2C(=O)C[C@@]2(C)[C@H]1CC[C@]2(O)C(=O)CO,,inconclusive: 50 µM
CC(C)(Oc1ccc(Cl)cc1)C(=O)O,inactive,
CC(C)(Oc1ccc(C2CC2(Cl)Cl)cc1)C(=O)O (centres undefined),,inconclusive: 29.2 µM
